This is an account of results in PMC12502668.

The target in assay [1] is SpoIVB_(75-426-S378A) (B. subtilis) (UniProt P17896). Put plainly: SAXS; BL19U2, 283 K, 1, 2 and 3.7 mg/mL; molecular weight by SAXSMoW; self-association; both purified.
Assay [2] shares this target. Put plainly: SEC; Superdex 200 Increase 10/300 GL, 20 mM Tris pH 7.4, 200 mM NaCl, 5% glycerol; self-association; both purified. (In general: Size exclusion chromatography separates by hydrodynamic size, large species first.)
For assay [3] the target is unchanged. Put plainly: dynamic light scattering; Nano ZS, 25°C, 20 mM Tris pH 7.4, 200 mM NaCl, 5% glycerol; 0.10, 0.25 and 0.50 mg/mL; self-association; both purified.

Results are given in words; binding and its absence hold for the method and conditions named.

B1: SpoIVB_(75-426-S378A) (domain or fragment, UniProt P17896 75-426)
chain: TGKKSGESELVYDLAGFPIKKTKVHVLPDLKVIPGGQSIGVKLHSVGVLVVGFHQINTSEGKKSPGETAGIEAGDIIIEMNGQKIEKMNDVAPFIQKAGKTGESLDLLIKRDKQKIKTKLIPEKDEGEGKYRIGLYIRDSAAGIGTMTFYEPKTKKYGALGHVISDMDTKKPIVVENGEIVKSTVTSIEKGTGGNPGEKLARFSSERKTIGDINRNSPFGIFGTLHQPIQNNISDQALPVAFSTEVKKGPAEILTVIDDDKVEKFDIEIVSTTPQKFPATKGMVLKITDPRLLKETGGIVQGMAGSPIIQNGKVIGAVTHVFVNDPTSGYGVHIEWMLSEAGIDIYGKEKAS
For the molecule B1, the binding entry in assay [1] is “no binding (tested: 3.7 mg/mL)”; in assay [2] it was “no binding”; in assay [3] it was “no binding (tested: 0.10, 0.25 and 0.50 mg/mL)”.
